Measurements reported in PubChem BioAssay AID1259254 (NCATS, 2017)
Here is a random part of about 59,000 reagents. About 1,550 of them (2.6%) count as active. 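G2 share is only a proxy for re-replication; each gene was hit by three separate siRNAs, and active genes were retested.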 Raw values are not corrected between plates. Entries without a mark were called inactive. Reagents against one gene are numbered here. Reagent sequences are not shown. Not stated in the record: the amount of reagent.

- Assay: 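Finding genes that stop cells copying their DNA twice in one cycle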 (primary screen)
- Cell system: human HCT116 colorectal cancer cells
- Knock-down reagent: single siRNA against human genes
- Time to read-out: 3 days
- Measurement: 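Nuclei stained with Hoechst and imaged; cell-cycle phase assigned by DNA content; G2 share scaled per plate, non-targeting siRNA 0%, GMNN siRNA 100%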
- Reading the numbers: G2 robust z-score and G2 cells, % of GMNN control: higher = more G2 cells, more excess DNA replication; raw share of cells in G2: higher = larger share of cells with G2 DNA content
- Hit rule: 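Active siRNAs have a G2 robust z of 5 or more median absolute deviations over the median, which in these data means about 38% or higher of GMNN control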

gene,siRNA no.,G2 robust z-score,"G2 cells, % of GMNN control",raw share of cells in G2 (%)
POU2F3-AS1,1,-1.05,-4.39,1.41
POU2F3-AS1,2,-0.749,-2.3,2.33
POU2F3-AS1,3,-0.874,-3.18,1.83
COA3,1,0.184,4.26,5.48
COA3,2,-0.522,-0.704,4.28
COA3,3,6.53 (active),48.9,18.7
EID1,1,0.0118,3.05,5.56
EID1,2,1.46,13.2,9.66
EID1,3,-0.244,1.25,3.73
VGLL1,1,-0.185,1.66,4.2
VGLL1,2,0.164,4.12,6.01
VGLL1,3,-0.241,1.27,3.61
IQCF3,1,0.0272,3.16,6.1
IQCF3,2,0.329,5.28,5.73
IQCF3,3,0.1,3.67,4.97
MAP2,1,3.32,26.3,11.9
MAP2,2,-0.0899,2.34,6.26
MAP2,3,0.359,5.49,7.65
AKR1B15,1,1.45,13.2,8.71
AKR1B15,2,1.12,10.8,7.53
AKR1B15,3,0.481,6.35,5.28
C5AR2,1,1.44,13.1,10.5
C5AR2,2,0.235,4.62,6.13
C5AR2,3,-1.22,-5.6,1.55
PKLR,1,-1.23,-5.66,3.74
PKLR,2,-0.0167,2.85,6.37
PKLR,3,-0.421,0.00263,4.03
UTP25,1,-0.321,0.712,4.13
UTP25,2,0.717,8.01,7.58
UTP25,3,-0.772,-2.46,2.48
ARID3A,1,0.625,7.37,6.63
ARID3A,2,-0.832,-2.89,3.94
ARID3A,3,-0.379,0.301,5.07
FAM131A,1,-0.463,-0.29,4.07
FAM131A,2,-0.587,-1.16,2.73
FAM131A,3,-0.0271,2.78,3.59
RABL2A,1,2.96,23.8,12
RABL2A,2,-0.607,-1.3,3.72
RABL2A,3,-1.48,-7.47,3.37
ZBTB33,1,0.654,7.57,6.04
ZBTB33,2,0.0593,3.38,7.49
ZBTB33,3,-0.00794,2.91,4.56
QDPR,1,-0.366,0.392,4.28
QDPR,2,0.46,6.21,7.11
QDPR,3,0.149,4.01,6.21
ZNF285,1,0.074,3.49,4.02
ZNF285,2,-0.127,2.07,6.85
ZNF285,3,1.16,11.1,7.13
LINC02389,1,-0.905,-3.4,3.38
LINC02389,2,3.15,25.1,13
LINC02389,3,1.51,13.6,8.9
CARNS1,1,-0.422,0.000809,4.35
CARNS1,2,-0.899,-3.36,2.85
CARNS1,3,1.99,17,8.41
EP400P1,1,-0.776,-2.5,2.66
EP400P1,2,-0.639,-1.53,2.96
EP400P1,3,-0.243,1.26,3.31
ZNF804A,1,-0.118,2.14,4.99
ZNF804A,2,1.05,10.4,6.25
ZNF804A,3,0.23,4.59,4.38
NSUN2,1,-0.994,-4.02,4.67
NSUN2,2,-1.02,-4.24,2.92
NSUN2,3,1.37,12.6,9.58
TNFRSF25,1,0.191,4.31,6.5
TNFRSF25,2,1.51,13.6,9.57
TNFRSF25,3,-0.785,-2.56,4.37
STYXL1,1,0.566,6.95,7.05
STYXL1,2,-1.14,-5.05,2.78
STYXL1,3,1.07,10.5,6.67

Records above whose gene name begins with N or n (3):
gene,siRNA no.,G2 robust z-score,"G2 cells, % of GMNN control",raw share of cells in G2 (%)
NSUN2,1,-0.994,-4.02,4.67
NSUN2,2,-1.02,-4.24,2.92
NSUN2,3,1.37,12.6,9.58
